From patent US20040265834A1
No constants are given. Whether binding was seen depends on the method and setting. In cells and extracts the contact can be indirect.

Molecular target: FGFR3
Assay: co-immunoprecipitation with anti-IL-17RLM serum from Cos7 cells co-expressing the two proteins

- binding: no binding
B1: human IL-17 receptor like molecule long form (hIL-17RLM-L) (receptor)
chain: CLNGSQLAVAAGGSGRARGADTCGWRGVGPASRNSGLYNITFKYDNCTTYLNPVGKHVIADAQNITISQYACHDQVAVTILWSPGALGIEFLKGFRVILEELKSEGRQCQQLILKDPKQLNSSFKRTGMESQPFLNMKFETDYFVKVVPFPSIKNESNYHPFFFRTRACDLLLQPDNLACKPFWKPRNLNISQHGSDMQVSFDHAPHNFGFRFFYLHYKLKHEGPFKRKTCEQEQTTEMTSCLLQNVSPGDYIIELVDDTNTTRKVMHYALKPVHSPWAGPIRAVAITVPLVVISAFATLFTVMCRKKQQENIYSHLDEESSESSTYTAALPRERLRPRPKVFLCYSSKDGQNHMNVVQCFAYFLQDFCGCEVALDLWEDFSLCREGQREWVIQKIHESQFIIVVCSKGMKYFVDKKNYKHKGGGRGSGKGELFLVAVSAIAEKLRQAKQSSSAALSKFIAVYFDYSCEGDVPGILDLSTKYRLMDNLPQLCSHLHSRDHGLQEPGQHTRQGSRRNYFRSKSGRSLYVAICNMHQFIDEEPDWFEKQFVPFHPPPLRYREPVLEKFDSGLVLNDVMCKPGPESDFCLKVEAAVLGATGPADSQHESQHGGLDQDGEARPALDGSAALQPLLHTVKAGSPSDMPRDSGIYDSSVPSSELSLPLMEGLSTDQTETSSLTESVSSSSGLGEEEPPALPSKLLSSGSCKADLGCRSYTDELHAVAPL
